Drawing on the supplement of paper PMC10849652, this text covers log2 fold change for 33 targets.

Amino acid sequences for entries named in this document (tags omitted). A change or cut given only in a name is not applied to a line headed by its entry.
UniProt O00151: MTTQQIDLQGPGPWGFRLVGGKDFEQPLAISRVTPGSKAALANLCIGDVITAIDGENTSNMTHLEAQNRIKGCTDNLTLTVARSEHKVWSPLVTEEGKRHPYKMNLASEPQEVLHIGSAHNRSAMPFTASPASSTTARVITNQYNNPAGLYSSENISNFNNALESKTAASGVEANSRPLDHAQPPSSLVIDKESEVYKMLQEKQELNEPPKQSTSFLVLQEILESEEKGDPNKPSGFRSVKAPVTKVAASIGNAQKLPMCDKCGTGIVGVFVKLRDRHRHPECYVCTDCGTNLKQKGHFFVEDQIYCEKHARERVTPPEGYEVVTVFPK
UniProt Q13177, whole entry, looked up: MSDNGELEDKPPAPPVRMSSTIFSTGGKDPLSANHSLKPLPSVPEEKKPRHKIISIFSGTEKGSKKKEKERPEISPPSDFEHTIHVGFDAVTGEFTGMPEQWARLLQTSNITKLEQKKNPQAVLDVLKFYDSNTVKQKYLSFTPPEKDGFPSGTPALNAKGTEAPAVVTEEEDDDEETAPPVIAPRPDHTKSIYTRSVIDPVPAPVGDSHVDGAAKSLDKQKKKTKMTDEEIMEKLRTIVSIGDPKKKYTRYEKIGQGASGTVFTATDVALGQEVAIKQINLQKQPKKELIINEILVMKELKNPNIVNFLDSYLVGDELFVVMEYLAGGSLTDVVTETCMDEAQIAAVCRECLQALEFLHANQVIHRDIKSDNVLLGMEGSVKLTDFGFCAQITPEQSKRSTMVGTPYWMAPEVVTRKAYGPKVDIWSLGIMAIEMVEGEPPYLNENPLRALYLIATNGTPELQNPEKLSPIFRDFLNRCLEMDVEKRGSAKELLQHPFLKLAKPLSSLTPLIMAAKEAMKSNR
UniProt Q9UNF0: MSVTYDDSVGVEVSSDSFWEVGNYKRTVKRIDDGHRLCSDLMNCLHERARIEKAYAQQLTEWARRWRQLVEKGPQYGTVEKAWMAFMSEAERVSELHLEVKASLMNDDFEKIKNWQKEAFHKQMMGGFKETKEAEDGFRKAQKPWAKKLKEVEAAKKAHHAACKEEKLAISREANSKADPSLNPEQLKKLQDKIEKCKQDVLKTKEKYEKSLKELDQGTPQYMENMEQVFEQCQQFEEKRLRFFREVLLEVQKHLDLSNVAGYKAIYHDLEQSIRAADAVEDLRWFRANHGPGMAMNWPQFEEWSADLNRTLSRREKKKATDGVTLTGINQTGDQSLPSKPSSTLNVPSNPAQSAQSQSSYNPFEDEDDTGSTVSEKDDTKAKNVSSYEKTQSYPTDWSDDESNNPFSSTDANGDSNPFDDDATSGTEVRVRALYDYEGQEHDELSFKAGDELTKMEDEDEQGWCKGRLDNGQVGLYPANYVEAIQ
UniProt Q96RG2: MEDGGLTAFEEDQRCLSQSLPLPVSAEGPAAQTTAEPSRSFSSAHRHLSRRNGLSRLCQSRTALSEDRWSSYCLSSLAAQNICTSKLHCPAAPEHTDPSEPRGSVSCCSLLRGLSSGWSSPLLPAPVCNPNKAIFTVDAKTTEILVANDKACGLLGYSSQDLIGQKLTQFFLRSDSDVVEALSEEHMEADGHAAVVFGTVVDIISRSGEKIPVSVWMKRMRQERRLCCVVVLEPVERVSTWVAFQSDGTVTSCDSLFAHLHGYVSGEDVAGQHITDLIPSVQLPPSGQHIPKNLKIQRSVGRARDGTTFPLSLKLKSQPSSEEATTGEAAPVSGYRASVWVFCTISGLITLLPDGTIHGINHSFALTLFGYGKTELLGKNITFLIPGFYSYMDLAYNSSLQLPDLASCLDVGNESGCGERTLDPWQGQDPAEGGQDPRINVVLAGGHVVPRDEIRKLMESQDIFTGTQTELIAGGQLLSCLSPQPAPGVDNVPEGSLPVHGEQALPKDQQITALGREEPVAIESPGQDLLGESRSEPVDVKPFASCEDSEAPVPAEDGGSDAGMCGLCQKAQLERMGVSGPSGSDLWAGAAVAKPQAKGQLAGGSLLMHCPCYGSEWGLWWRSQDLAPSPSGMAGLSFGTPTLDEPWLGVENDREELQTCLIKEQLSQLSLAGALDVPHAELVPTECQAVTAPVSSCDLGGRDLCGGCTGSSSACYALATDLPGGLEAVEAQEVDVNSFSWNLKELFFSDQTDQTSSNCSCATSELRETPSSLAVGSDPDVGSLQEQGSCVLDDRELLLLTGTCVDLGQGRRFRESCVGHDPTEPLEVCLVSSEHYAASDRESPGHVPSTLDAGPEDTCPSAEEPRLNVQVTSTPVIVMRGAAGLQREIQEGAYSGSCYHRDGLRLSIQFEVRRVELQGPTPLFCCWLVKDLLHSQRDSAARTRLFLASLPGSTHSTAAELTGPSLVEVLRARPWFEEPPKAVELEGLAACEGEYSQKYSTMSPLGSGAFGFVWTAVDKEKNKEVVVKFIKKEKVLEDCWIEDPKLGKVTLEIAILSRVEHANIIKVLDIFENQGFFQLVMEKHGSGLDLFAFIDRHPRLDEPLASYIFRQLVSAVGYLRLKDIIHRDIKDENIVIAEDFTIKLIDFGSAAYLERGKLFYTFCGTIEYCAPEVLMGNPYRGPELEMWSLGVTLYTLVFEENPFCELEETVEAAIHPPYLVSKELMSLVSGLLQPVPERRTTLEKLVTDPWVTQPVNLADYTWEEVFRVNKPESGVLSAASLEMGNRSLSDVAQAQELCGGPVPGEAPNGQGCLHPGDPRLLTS
UniProt Q9BYG5: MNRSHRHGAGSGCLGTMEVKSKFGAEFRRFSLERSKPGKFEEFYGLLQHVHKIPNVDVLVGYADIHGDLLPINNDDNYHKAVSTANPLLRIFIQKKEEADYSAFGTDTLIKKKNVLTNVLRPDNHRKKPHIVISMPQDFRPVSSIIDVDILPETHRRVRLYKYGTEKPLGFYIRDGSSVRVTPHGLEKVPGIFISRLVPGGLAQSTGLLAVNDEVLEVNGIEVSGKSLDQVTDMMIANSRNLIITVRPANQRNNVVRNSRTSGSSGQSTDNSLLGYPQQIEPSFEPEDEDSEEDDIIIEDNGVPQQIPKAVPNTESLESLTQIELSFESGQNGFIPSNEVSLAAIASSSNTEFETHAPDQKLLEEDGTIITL
UniProt Q9UHG3: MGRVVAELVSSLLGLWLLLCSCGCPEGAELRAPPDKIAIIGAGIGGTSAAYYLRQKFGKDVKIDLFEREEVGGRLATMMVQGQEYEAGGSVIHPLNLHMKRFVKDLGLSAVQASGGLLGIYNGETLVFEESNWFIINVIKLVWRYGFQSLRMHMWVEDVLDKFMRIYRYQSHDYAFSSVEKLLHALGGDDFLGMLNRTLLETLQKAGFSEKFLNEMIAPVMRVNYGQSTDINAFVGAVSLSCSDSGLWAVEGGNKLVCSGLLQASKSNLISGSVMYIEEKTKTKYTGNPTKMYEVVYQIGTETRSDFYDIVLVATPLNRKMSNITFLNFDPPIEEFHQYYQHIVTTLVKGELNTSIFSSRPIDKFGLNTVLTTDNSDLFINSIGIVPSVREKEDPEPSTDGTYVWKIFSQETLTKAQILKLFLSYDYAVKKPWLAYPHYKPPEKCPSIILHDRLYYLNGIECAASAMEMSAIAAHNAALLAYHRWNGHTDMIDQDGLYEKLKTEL
UniProt Q96GD0: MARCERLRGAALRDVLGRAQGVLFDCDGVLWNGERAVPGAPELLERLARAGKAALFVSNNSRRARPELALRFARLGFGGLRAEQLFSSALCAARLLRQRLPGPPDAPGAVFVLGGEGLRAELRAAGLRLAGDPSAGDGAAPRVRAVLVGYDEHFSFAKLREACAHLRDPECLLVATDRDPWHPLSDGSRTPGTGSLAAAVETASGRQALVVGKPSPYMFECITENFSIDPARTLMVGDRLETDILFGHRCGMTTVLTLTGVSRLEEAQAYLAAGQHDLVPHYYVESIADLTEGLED
UniProt O00541, whole entry, looked up: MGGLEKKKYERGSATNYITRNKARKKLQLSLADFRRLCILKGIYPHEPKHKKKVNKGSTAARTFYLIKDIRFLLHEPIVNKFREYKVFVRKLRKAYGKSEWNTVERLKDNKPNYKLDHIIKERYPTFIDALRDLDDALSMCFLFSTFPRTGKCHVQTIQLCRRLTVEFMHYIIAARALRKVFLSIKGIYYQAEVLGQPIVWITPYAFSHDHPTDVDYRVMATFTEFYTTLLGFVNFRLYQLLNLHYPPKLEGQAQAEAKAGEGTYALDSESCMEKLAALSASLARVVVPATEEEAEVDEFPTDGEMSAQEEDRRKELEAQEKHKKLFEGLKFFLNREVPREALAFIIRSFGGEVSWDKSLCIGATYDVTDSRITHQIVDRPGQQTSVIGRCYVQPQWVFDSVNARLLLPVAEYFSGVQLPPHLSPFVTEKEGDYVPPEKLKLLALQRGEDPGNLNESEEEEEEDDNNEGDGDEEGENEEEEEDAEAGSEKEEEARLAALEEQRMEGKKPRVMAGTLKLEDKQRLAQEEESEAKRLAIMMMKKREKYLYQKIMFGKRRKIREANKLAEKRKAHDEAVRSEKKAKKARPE
UniProt P12955: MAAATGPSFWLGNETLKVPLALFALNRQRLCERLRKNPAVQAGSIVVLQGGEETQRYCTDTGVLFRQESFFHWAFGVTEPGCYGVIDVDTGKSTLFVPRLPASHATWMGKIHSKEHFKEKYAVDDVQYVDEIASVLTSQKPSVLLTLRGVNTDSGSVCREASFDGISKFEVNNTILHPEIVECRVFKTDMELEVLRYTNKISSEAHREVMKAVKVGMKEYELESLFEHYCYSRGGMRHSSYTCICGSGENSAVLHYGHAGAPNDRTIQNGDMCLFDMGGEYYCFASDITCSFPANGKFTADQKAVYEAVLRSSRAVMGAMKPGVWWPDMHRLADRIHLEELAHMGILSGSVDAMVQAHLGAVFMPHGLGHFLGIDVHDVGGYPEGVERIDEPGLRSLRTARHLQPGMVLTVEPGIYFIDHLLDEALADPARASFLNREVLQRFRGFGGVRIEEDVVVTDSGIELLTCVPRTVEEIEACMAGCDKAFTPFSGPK
UniProt Q9HBI1: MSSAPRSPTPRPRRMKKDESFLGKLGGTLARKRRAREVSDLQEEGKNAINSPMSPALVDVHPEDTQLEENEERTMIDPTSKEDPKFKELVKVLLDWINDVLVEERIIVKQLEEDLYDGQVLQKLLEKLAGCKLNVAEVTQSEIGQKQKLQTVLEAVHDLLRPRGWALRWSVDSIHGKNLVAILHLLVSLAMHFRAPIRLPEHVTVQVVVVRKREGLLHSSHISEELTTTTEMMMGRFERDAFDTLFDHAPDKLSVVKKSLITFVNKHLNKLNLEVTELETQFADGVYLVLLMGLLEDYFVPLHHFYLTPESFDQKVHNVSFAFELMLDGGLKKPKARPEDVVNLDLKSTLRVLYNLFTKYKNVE
UniProt P43034: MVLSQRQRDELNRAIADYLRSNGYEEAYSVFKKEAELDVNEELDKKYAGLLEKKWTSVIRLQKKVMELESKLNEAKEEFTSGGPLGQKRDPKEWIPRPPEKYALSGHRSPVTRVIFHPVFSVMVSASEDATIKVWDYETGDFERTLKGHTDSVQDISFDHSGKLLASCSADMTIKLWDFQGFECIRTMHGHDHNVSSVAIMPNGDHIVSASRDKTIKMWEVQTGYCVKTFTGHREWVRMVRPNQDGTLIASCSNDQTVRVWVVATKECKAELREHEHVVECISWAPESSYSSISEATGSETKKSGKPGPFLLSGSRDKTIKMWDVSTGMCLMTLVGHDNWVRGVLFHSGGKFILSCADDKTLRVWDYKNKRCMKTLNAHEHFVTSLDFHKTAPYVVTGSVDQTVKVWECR
UniProt P11177, whole entry, looked up: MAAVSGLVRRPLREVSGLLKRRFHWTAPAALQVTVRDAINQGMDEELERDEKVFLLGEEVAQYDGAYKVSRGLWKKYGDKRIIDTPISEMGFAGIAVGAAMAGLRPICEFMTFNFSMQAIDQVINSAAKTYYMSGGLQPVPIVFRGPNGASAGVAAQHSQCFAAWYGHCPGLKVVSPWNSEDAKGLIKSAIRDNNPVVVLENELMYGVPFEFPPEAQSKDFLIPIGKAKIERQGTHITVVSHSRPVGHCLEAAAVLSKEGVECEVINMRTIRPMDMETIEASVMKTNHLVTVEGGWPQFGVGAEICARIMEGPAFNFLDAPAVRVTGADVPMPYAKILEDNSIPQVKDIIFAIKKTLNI
UniProt Q9H074: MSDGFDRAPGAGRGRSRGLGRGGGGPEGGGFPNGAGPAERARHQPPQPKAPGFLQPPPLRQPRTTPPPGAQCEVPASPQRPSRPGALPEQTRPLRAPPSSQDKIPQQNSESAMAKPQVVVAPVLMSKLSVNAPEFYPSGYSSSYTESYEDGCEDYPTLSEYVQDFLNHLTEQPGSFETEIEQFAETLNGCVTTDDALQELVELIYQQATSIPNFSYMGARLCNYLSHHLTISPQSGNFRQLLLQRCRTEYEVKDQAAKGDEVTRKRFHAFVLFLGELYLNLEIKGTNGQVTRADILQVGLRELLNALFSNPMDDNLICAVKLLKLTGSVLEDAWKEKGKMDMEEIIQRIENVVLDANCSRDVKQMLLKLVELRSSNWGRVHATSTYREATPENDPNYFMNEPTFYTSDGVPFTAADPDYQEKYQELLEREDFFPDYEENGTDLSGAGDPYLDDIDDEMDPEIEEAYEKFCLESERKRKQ

The other results are listed elsewhere or left out.

Compound in the first experiment: Cc1cn(-c2cc(NC(=O)c3ccc(C)c(Nc4nccc(-c5cccnc5)n4)c3)cc(C(F)(F)F)c2)cn1 [nilotinib]
Briefly: log2 fold change, soluble protein after heating vs DMSO (PISA); higher = thermal stabilisation; K562 cells, 10 uM, 30 min; active = over 0.2 and 3.5 SD of the protein, either way, in both replicates (recomputed). The method in brief:
(§1)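 Soluble protein was quantified by TMTpro 16plex LC-MS/MS after channel sums were equalised. It was obtained as the supernatant after 21,000xg for 90 min from pooled aliquots of K562 cells (2×10^6 cells/mL, 10 μM compound, 30 min) heated for 3 min across 48°C-58°C and extracted in PBS with 0.5% NP-40 at 4°C. Thermal stability values are relative to control samples and come from duplicates. They are given as log2 fold changes.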
For the target PEX12 (UniProt O00623), the log2 fold change is inactive: -0.025.
Consider PDHX (UniProt O00330), for which the log2 fold change was inactive: -0.01.
In the case of PANK4 (UniProt Q9NVE7), the log2 fold change was inactive: -0.051.
The same measure, in the same setting: the value for PDSS1 (UniProt Q5T2R2) was inactive: -0.019; that for PDLIM1 (UniProt O00151) was inactive: 0.011.
On to PDLIM4 (UniProt P50479), for which the log2 fold change is inactive: 0.023.
Still for that read-out and setting: the value for PAK2 (UniProt Q13177) was inactive: 0.04.
For the target PACSIN2 (UniProt Q9UNF0), the log2 fold change is inactive: -0.12.
As to PDXDC1 (UniProt Q6P996), the log2 fold change was inactive: -0.051.
Same read-out and setting: the value for PASK (UniProt Q96RG2) was inactive: -0.024; that for PARD6B (UniProt Q9BYG5) was inactive: -0.022.
On the same count and under the same terms, for PEBP1 (UniProt P30086) the value was inactive: 0.02; for PCYOX1 (UniProt Q9UHG3), inactive: 0.085.
Take PDXP (UniProt Q96GD0): the log2 fold change is inactive: 0.002.
In the case of PER3 isoform 2 (UniProt P56645), the log2 fold change was inactive: 0.022.
Same read-out and setting: the value for PEX1 (UniProt O43933) was inactive: 0.005.
Take PARK7 (UniProt Q99497): the log2 fold change is inactive: -0.022.
For the target PAK1IP1 (UniProt Q9NWT1), the log2 fold change is inactive: 0.035.
Regarding PES1 (UniProt O00541), the log2 fold change was inactive: -0.061.
With PDRG1 (UniProt Q9NUG6), the log2 fold change is inactive: 0.003.
Take PDXK (UniProt O00764): the log2 fold change was inactive: 0.017.
On the same count and under the same terms, for PABPC4 isoform 3 (UniProt Q13310) the value was inactive: -0.041; for PCMT1 isoform 2 (UniProt P22061), inactive: 0.04.
For the target PEPD (UniProt P12955), the log2 fold change is inactive: 0.003.
Same read-out and setting: the value for PDCD10 (UniProt Q9BUL8) was inactive: -0.042.
Turning to PAPOLA (UniProt P51003), the log2 fold change was inactive: -0.029.
Still for that read-out and setting: for PARVB (UniProt Q9HBI1) the value was inactive: -0.039; for PANX1 (UniProt Q96RD7), inactive: 0.054; for PAFAH1B1 (UniProt P43034), inactive: -0.016.
For the target PDIA3 (UniProt P30101), the log2 fold change is inactive: 0.017.
On the same count and under the same terms, for PDHB (UniProt P11177) the value was inactive: -0.001; for PAIP1 (UniProt Q9H074), inactive: -0.004.
For the target PDCL (UniProt Q13371), the log2 fold change was inactive: -0.02.

Compound in a further experiment: Cc1nc(Nc2n[nH]c3c2CN(C(=O)N[C@H](CN(C)C)c2ccccc2)C3(C)C)c2sccc2n1
The description is as above. The method in brief:
as §1
As to PEX12 (UniProt O00623), the log2 fold change was inactive: 0.02.
Consider PDHX (UniProt O00330), for which the log2 fold change is inactive: 0.137.
The same measure, in the same setting: for PANK4 (UniProt Q9NVE7) the value was inactive: 0.113.
As to PDSS1 (UniProt Q5T2R2), the log2 fold change is inactive: 0.028.
PDLIM1 (UniProt O00151): the log2 fold change is inactive: -0.005.
As for PDLIM4 (UniProt P50479), the log2 fold change was inactive: 0.002.
Same read-out and setting: for PAK2 (UniProt Q13177) the value was inactive: 0.002; for PACSIN2 (UniProt Q9UNF0), inactive: -0.192; for PDXDC1 (UniProt Q6P996), inactive: 0.042.
For PASK (UniProt Q96RG2), the log2 fold change was inactive: -0.01.
For the target PARD6B (UniProt Q9BYG5), the log2 fold change was inactive: 0.025.
Turning to PEBP1 (UniProt P30086), the log2 fold change is inactive: -0.004.
As for PCYOX1 (UniProt Q9UHG3), the log2 fold change was inactive: 0.071.
Consider PDXP (UniProt Q96GD0), for which the log2 fold change was inactive: 0.01.
Take PER3 isoform 2 (UniProt P56645): the log2 fold change is inactive: 0.023.
The same measure, in the same setting: the value for PEX1 (UniProt O43933) was inactive: -0.001; that for PARK7 (UniProt Q99497) was inactive: 0; that for PAK1IP1 (UniProt Q9NWT1) was inactive: 0.21.
Regarding PES1 (UniProt O00541), the log2 fold change was inactive: 0.157.
As to PDRG1 (UniProt Q9NUG6), the log2 fold change was inactive: -0.014.
In the case of PDXK (UniProt O00764), the log2 fold change was inactive: -0.037.
The same measure, in the same setting: for PABPC4 isoform 3 (UniProt Q13310) the value was inactive: -0.029; for PCMT1 isoform 2 (UniProt P22061), inactive: 0.022.
On the same count and under the same terms, for PEPD (UniProt P12955) the value was inactive: -0.02; for PDCD10 (UniProt Q9BUL8), inactive: 0.217.
On the same count and under the same terms, for PAPOLA (UniProt P51003) the value was inactive: -0.02; for PARVB (UniProt Q9HBI1), inactive: -0.042.
Consider PANX1 (UniProt Q96RD7), for which the log2 fold change is inactive: 0.019.
As to PAFAH1B1 (UniProt P43034), the log2 fold change is inactive: 0.016.
For PDIA3 (UniProt P30101), the log2 fold change is inactive: 0.047.
Regarding PDHB (UniProt P11177), the log2 fold change was inactive: 0.17.
Take PAIP1 (UniProt Q9H074): the log2 fold change is inactive: 0.008.
In the case of PDCL (UniProt Q13371), the log2 fold change was inactive: -0.003.

Compound in another experiment: Cc1nc(Nc2ncc(C(=O)Nc3c(C)cccc3Cl)s2)cc(N2CCN(CCO)CC2)n1 [dasatinib]
The experiment is described as above. In outline:
as §1
In the case of PEX12 (UniProt O00623), the log2 fold change was inactive: -0.099.
The same measure, in the same setting: the value for PDHX (UniProt O00330) was inactive: 0.057.
Turning to PANK4 (UniProt Q9NVE7), the log2 fold change is inactive: -0.086.
Consider PDSS1 (UniProt Q5T2R2), for which the log2 fold change was inactive: -0.08.
In the case of PDLIM1 (UniProt O00151), the log2 fold change was inactive: 0.036.
Take PDLIM4 (UniProt P50479): the log2 fold change was inactive: 0.065.
Take PAK2 (UniProt Q13177): the log2 fold change is inactive: -0.008.
On to PACSIN2 (UniProt Q9UNF0), for which the log2 fold change was inactive: -0.249.
With PDXDC1 (UniProt Q6P996), the log2 fold change is inactive: 0.018.
PASK (UniProt Q96RG2): the log2 fold change is inactive: -0.068.
Regarding PARD6B (UniProt Q9BYG5), the log2 fold change was inactive: -0.045.
Turning to PEBP1 (UniProt P30086), the log2 fold change is inactive: 0.039.
Consider PCYOX1 (UniProt Q9UHG3), for which the log2 fold change was inactive: 0.057.
The same measure, in the same setting: for PDXP (UniProt Q96GD0) the value was inactive: 0.021; for PER3 isoform 2 (UniProt P56645), inactive: 0.051.
Still for that read-out and setting: for PEX1 (UniProt O43933) the value was inactive: -0.015; for PARK7 (UniProt Q99497), inactive: -0.003; for PAK1IP1 (UniProt Q9NWT1), inactive: 0.196.
As for PES1 (UniProt O00541), the log2 fold change is inactive: 0.032.
As to PDRG1 (UniProt Q9NUG6), the log2 fold change is inactive: 0.047.
PDXK (UniProt O00764): the log2 fold change was inactive: 0.023.
Same read-out and setting: for PABPC4 isoform 3 (UniProt Q13310) the value was inactive: 0.038.
PCMT1 isoform 2 (UniProt P22061): the log2 fold change is inactive: -0.02.
On the same count and under the same terms, the value for PEPD (UniProt P12955) was inactive: 0.065; that for PDCD10 (UniProt Q9BUL8) was inactive: -0.175.
PAPOLA (UniProt P51003): the log2 fold change is inactive: -0.079.
Regarding PARVB (UniProt Q9HBI1), the log2 fold change is inactive: -0.197.
Still for that read-out and setting: the value for PANX1 (UniProt Q96RD7) was inactive: 0.045; that for PAFAH1B1 (UniProt P43034) was inactive: 0.009; that for PDIA3 (UniProt P30101) was inactive: 0.029.
Turning to PDHB (UniProt P11177), the log2 fold change was inactive: -0.001.
In the case of PAIP1 (UniProt Q9H074), the log2 fold change was inactive: -0.005.
Still for that read-out and setting: the value for PDCL (UniProt Q13371) was inactive: 0.003.
